Source: the supplement of paper PMC3334620
In all, about 33,000 sequences were measured (“E-score (-0.5 to 0.5)”: median about -0.0059, highest 2% from about 0.26 on). The list shows a part of the results.

target: T1, Cin5 (UniProt P40917); assay: PBM E-score (8-mer binding enrichment) (E-score (-0.5 to 0.5)); higher = stronger / more preferred TF binding; conditions: protein concentration: 100 nM; construct: GST-full length
T1 sequence: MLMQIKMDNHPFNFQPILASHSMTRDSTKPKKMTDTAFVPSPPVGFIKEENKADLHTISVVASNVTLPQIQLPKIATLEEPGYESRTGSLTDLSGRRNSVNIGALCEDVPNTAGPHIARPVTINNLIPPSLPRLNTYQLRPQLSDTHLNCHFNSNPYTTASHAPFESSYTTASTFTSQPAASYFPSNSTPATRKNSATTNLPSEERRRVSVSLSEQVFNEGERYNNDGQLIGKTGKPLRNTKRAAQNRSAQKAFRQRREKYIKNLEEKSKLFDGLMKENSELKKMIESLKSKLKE
How it was run: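 Masliner-normalised scans of fluorescent anti-GST signal were the basis for scoring. That signal came from GST-tagged yeast transcription factors applied at about 100-200 nM to double-stranded universal all-10-mer Agilent arrays on fresh or once-stripped slides. Each ungapped eight-base word, pooled with its reverse complement, received an E-score from the Universal PBM Analysis Suite.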

Sequence	PBM E-score
GCGAGGCC	-0.172
ACGAATAA	0.144
GCCGGGCC	-0.256
GGGCCTTA	-0.106
AGGGGAGA	-0.286
AGTGTACA	-0.0933
TTTTAAAA	-0.0381
CGCAGTCC	-0.221
GAGGCTTA	0.169
CTTCCAAC	0.00872
GTGGCTTA	0.0222
CGGTAGGC	-0.195
CGTAGCAA	0.0114
GAGCTTTA	-0.0441
GCGGGACC	-0.0947
TAGACGGA	0.0538
AAGCTGCT	0.0668
ACACGTAG	-0.151
ACCTCACT	0.0509
CCTCGAGA	0.0341
ACACATAA	0.274
CCCCTTAA	-0.269
TCTCGGCA	-0.0987
AACGGGAG	-0.0138
TCACGCGA	0.0021

Sequence	PBM E-score
GCACGCAC	-0.302
GTCCCGGA	-0.0399
CAAGACGG	-0.0852
ACCGAATA	0.00263
ACCATCGT	-0.12
CAGATGGG	-0.127
GAGTTTTA	0.0503
AGCACAAA	0.175
CACCATGC	-0.117
CCTAGTAG	-0.249
ATTGATAA	0.157
CCCGACGA	-0.072
CCTGGTAA	0.0322
CGGCGTTC	-0.179
GCGGAATA	0.154
GCATGAAC	0.129
CGCGTCTC	0.0382
TCAGGACA	-0.00718
CATCGCAC	-0.127
GACCGTTA	0.0179
GCGGTAGA	-0.0884
CGCATACA	0.0927
TATACAGA	0.22
ACTCTTAT	0.209
GGCGTTCA	-0.124

Looked up above:
Entry for GCGGTAGA under PBM E-score: -0.0884
Entry for TCTCGGCA under PBM E-score: -0.0987
Entry for ACACGTAG under PBM E-score: -0.151
Entry for ACGAATAA under PBM E-score: 0.144
Entry for AGTGTACA under PBM E-score: -0.0933

Some of the entries so far, with each value named:
GCGGTAGA
  PBM E-score = -0.0884
CGCATACA
  PBM E-score = 0.0927
TATACAGA
  PBM E-score = 0.22
ACTCTTAT
  PBM E-score = 0.209

Additional results:

Sequence	PBM E-score
ACCTAAAA	0.0709
ACCCACTG	0.064
CAGTACCC	-0.152
TATTACCA	0.173
CCAGTAGG	-0.17
CTCCTAGC	-0.259
ACGAATAG	0.0703
ACTCTCCG	-0.0673
ACACTACA	0.138
TCCCGCAA	0.105
CGTGACGA	0.0102
GATCACGC	0.197
ACGGAGGC	-0.257
GGAGTTGA	-0.0713
CGAGTCGC	-0.247
AAGCGCAT	0.162
GACAACAC	0.0247
ACCAATTA	0.266
TATAGTAA	0.324
CCCCCCTC	-0.465
TAGTACGA	0.0374
CGATCCCC	-0.159
AGCGGCCA	-0.267
AAATCACA	0.00243
AAAATAGA	0.187

Sequence	PBM E-score
ATTCAGTC	-0.0704
GATGCTAC	0.032
CCCGTGCC	-0.294
ACGAGAGA	-0.0604
AGCTACAA	0.0604
ATGATGGC	0.0266
AAAATCTA	-0.0459
CTATGAGA	-0.0703
AAACTCTA	-0.00419
CAGGTTAA	-0.00727
CAGTTATC	-0.0632
AGTGCTGC	-0.118
AACCCATA	0.29
AGCTCAAC	0.0126
AGTGACTG	-0.0233
GCTCCACC	-0.317
ACCCCTCG	-0.167
ATCGCCGG	-0.0423
ACCGTCGG	-0.256
GTTTTTAA	0.0998
ACATGATG	-0.024
AATTACGG	0.141
ATAGAATC	-0.0878
AATGAAAT	0.233
AACTCGGT	0.0563

Sequence	PBM E-score
TCTCTGAA	-0.143
AGTATCCC	0.0604
AACATTGT	0.085
GCTCTACC	-0.288
AAAAAGAA	0.141
AGCCCGGC	-0.139
AAAGTACT	0.004
CCCACAGC	-0.192
CATCCACC	0.14
GTAAGAAA	0.131
CCAGACCG	-0.0813
ATTAGTGA	0.143
GTGAGTCA	0.00801
CATAACCA	0.133
AGCATTGG	0.0399
AGCCTCGC	-0.119
AACGAGTC	-0.105
GTACAAAC	0.0903
GCGTGGAA	0.106
GGCATGTA	0.00303
TATGGTAA	0.288
ATAATTAG	0.241
TCCCATCA	-0.142
AAAGCGTC	-0.113
ACCATGTG	0.116

Sequence	PBM E-score
ATCATGCC	0.0752
TGGAAGAA	0.0993
ACTCTACC	0.01
GGTGGTAA	0.108
AACCCAGG	-0.121
AGTCGGTA	-0.166
ATTGCGAA	-0.0775
GTCAAGTA	-0.221
AGTAAAAG	0.176
GTCCACTA	0.0349
AAAGAGTG	-0.0649
CACTGCGC	-0.0301
CGAAAGTC	-0.0412
CAAAAGTG	0.111
CGCTGTCC	-0.0216
GAGACTCC	-0.114
AGGAGAGA	-0.159
GCATTCAC	0.114
ACATCGGC	-0.0361
AAGAATAA	0.0631
ACAATAGT	0.157
AACAGACG	-0.0493
AAACTTCG	-0.0351
GCAAAGAC	0.00763
ACTTGGAA	-0.0703

Sequence	PBM E-score
ACGGCAAG	-0.0312
ATCTGGCA	-0.0355
CCAGACGA	-0.176
AATGCCAC	-0.0464
GTCGTATA	0.103
CTACATGC	-0.0298
AAGGAGCT	-0.271
AATGGAAC	0.103
AAGAATAG	0.0681
ACCAGAGC	-0.0046
AACTCAAG	-0.0342
AGTTGGTA	0.18
ACTTGGCG	-0.0901
GCGACCCC	-0.283
CGAAAGCG	-0.206
AGGGCTCC	-0.351
GGGACATA	0.0818
ATCTCATG	0.155
CCTTGTCG	-0.0982
CGTCGTAC	-0.00206
ACTGGAGC	-0.253
GGCACGAA	0.0353
AATTAAGT	0.134
CAGATCTG	0.0178
CGACAAAC	-0.0642

Sequence	PBM E-score
AATTCAGA	0.00727
TGACCTCA	-0.0132
CACGGGGG	-0.401
CTTGGCAA	-0.22
GGAGTACA	-0.0949
CAATGCTG	-0.0255
GGAATTCA	0.175
ACAAAACT	0.155
CAAAAGCG	-0.0222
AATCTAGG	0.0824
ACAGTGTG	-0.00966
AGCGTGTA	-0.0888
CCAAAAGG	-0.274
GTTGATCA	0.152
GAATAGAC	-0.04
ACTGATGA	0.128
GAAACCGA	-0.0178
GTGGGTGA	0.0437
ACATAATA	0.364
CCTCAATC	-0.018
CCAGCAGA	-0.0643
CTGCAAGC	-0.23
CATCGGAG	-0.229
CTGATCAA	0.0587
GTCTGCCA	-0.228

Sequence	PBM E-score
AATCTGCC	0.0186
ACGAAACA	0.0947
ACTGGCCA	0.08
GTCTCCGA	-0.0909
AAATTAAA	0.214
GCATCAGA	0.102
AACGTCTT	-0.0374
GTACCCTA	0.0342
TATGTGCA	0.0166
CGCTGACG	0.094
TATAAACA	0.147
GCCGCTCC	-0.305
ACACCTGT	-0.0983
CAGTTTGA	0.1
CGCTGCAA	-0.0268
AAGGCGCT	-0.0988
AATTCTCT	-0.0757
GTCACAAA	-0.0564
CCCCGGAG	-0.131
